The target of assay [1] is T1, MBP-tagged split mFAP fragment m16 (β-strands 1-6 of mFAP2a).
T1 chain: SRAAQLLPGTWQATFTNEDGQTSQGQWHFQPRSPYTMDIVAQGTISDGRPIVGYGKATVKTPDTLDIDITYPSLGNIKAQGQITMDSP
Nature of the assay: titration of MBP-tagged m78 into fixed MBP-tagged m16 (16.8 µM) in 25.0 µM DFHBI-1T, fluorescence endpoint (n=1).

Assay [2] concerns the target T1, MBP-tagged split mFAP fragment m16 …. Nature of the assay: β-barrel self-complementation assay (fluorescence of DFHBI-1T).
Assay [3] shares this target. Nature of the assay: fluorescence complementation titration in excess DFHBI-1T.
Assay [4] concerns the target T2, MBP-tagged split mFAP fragment m8 (β-strand 8 of mFAP2a).
T2 sequence: RLTGTLQRQE
Nature of the assay: split mFAP self-complementation, MBP-tagged fragments mixed equimolar with excess DFHBI-1T, fluorescence endpoint (n=3).

The target of assay [5] is T3, MBP-tagged split mFAP fragment m78 (β-strands 7-8 of mFAP2a).
T3 sequence: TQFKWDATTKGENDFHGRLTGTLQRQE
Described as above.

The target in assay [6] is T4, MBP-tagged split mFAP fragment m17 (β-strands 1-7 of mFAP2a).
T4 chain: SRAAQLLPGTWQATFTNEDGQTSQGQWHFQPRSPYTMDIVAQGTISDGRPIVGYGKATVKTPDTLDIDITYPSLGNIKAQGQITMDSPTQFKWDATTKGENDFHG
The assay can be described thus: titration of MBP-tagged m8 into fixed MBP-tagged m17 (14.1 µM) in 25.0 µM DFHBI-1T, fluorescence endpoint (n=1).

The target of assay [7] is T4, MBP-tagged split mFAP fragment m17 …. The assay can be described thus: β-barrel self-complementation assay (fluorescence of DFHBI-1T).
For assay [8] the target is unchanged. Nature of the assay: fluorescence complementation titration in excess DFHBI-1T.

No constants are given. Whether binding was seen depends on the method and setting. Some entries that bind do so weakly or less than the wild type. Tags and fused reporters may be left off the sequences shown.

Regarding TQFKWDATTKGENDFHGRLTGTLQRQE (designed binder, not shown: large carriers) [MBP-tagged split mFAP fragment m78 (β-strands 7-8 of mFAP2a)], the binding entry in assay [1], in assay [2] and in assay [3] was “binds” throughout.

B1: MBP-tagged split mFAP fragment m17 (β-strands 1-7 of mFAP2a) (designed binder, not shown: large carriers)
chain: SRAAQLLPGTWQATFTNEDGQTSQGQWHFQPRSPYTMDIVAQGTISDGRPIVGYGKATVKTPDTLDIDITYPSLGNIKAQGQITMDSPTQFKWDATTKGENDFHG
Turning to B1, in assay [4], the binding entry is reported as “binds”.

B2: MBP-tagged split mFAP fragment m16 (β-strands 1-6 of mFAP2a) (designed binder, not shown: large carriers)
chain: SRAAQLLPGTWQATFTNEDGQTSQGQWHFQPRSPYTMDIVAQGTISDGRPIVGYGKATVKTPDTLDIDITYPSLGNIKAQGQITMDSP
Take B2: the binding result in assay [5] is “binds”.
On to RLTGTLQRQE (designed binder, not shown: large carriers) [MBP-tagged split mFAP fragment m8 (β-strand 8 of mFAP2a)], for which the binding result in assay [6], in assay [7] and in assay [8] was “binds” each time.
